{"source": "paper PMC4568394", "about": "“Differentially expressed seed aging responsive heat shock protein OsHSP18.2 implicates in seed vigor, longevity and improves germination and seedling establishment under abiotic stress” (Frontiers in Plant Science, 2015)", "binders": {"B1": {"name": "OsHSP18.2, a class II cytosolic small heat shock protein of rice (6X His tagged recombinant) (natural protein, Oryza sativa indica var. PB-1, UniProt Q5VRY1 1-166, looked up)", "chain": "MESAMFGLETPLMTALQHLLDIPDGEGGAAGKQGATGGPTRAYVRDARAMAATPADVKDLPGAYAFVVDMPGLKSSDIKVQVEEERLLVISGERRRGGGEEEKEESCKYLRMERRMGKFMRKFVLPDNADVDKISAVCQDGVLTVTVEKLPPPEPKKPKTIEVKVA", "notes": "OsHSP18.2, class II heat shock protein, Oryza sativa indica var; complete ORF / CDS, 166 aa, predicted 18.2 kDa; the indica PB-1 clone may differ from it; pET23b usually adds a C-terminal His6 tag; copies: 12"}}, "target": "OsHSP18.2, a class II cytosolic small heat shock protein of rice (6X His tagged recombinant) (Oryza sativa indica var. PB-1) (UniProt Q5VRY1)", "assay": "native gel or EMSA; 5% native polyacrylamide gel of the purified protein, with marker bands; both purified", "note": "These are yes or no findings as the source states them, for the method shown. Some binding calls cover weakened binding; strength is not graded here. Sequences can lack the tags named with a protein.", "data": [{"binder": "B1", "values": [{"measurement": "binding", "value": "binds"}]}]}
